# Experimental data from the supplement of paper PMC8728848.
# The list shows a part of the results.
# B1: PX14404-bvu-534-26-534 (Bacteroides vulgatus) (protein)
# chain: EDPRGKLTPENFFSTQDELNMSIYALYQKVNLSQVYTNMQLPQWQGDDITTNPGSNKQPAAEMDKFAAANNNKGVKDAWNMHYAIVKAANLIIQGASKTPTTQDEINIALGQAKFWRAYAYFTLVRLWGPLPMNLDNVNDDYTKPLSPVEEVYGHIVQDLTEAEAVLPTGYSGSPRFLNGVNVYVTRQAAKSTLAAVYMAMAGWPMNKTEYYAKAAEKAKEVIEGVNRGEYEYKLDKDYKDVYAMSNNYNNETVLGINYSPFVDWAQDSELTSCNQFESLGGWGDAWGEIRFWKEFPDGPRKDATYDPKIRLKDGTLVDWWELKEDGTPVVPEHHPMFSIFSVNWDPASKVNTSAPYDYTKPASQNMCNDHRHRIIRYSEVLLWYAEAKARTGQTDELAFKCLNDVRERAGLEPLTGLSADDLAEAAYKEHGWEVAGYWVALVTRRADQFRMNRLKDTFKERAENTAVEVADGILVKESVEYTNRTWSDNLMYLPYPDMDSQKNPNLVR
# Key:
# Assay in all cases: glycan array binding signal (z-score within array); higher = stronger binding
# Conditions in all cases: glycan notation: IUPAC condensed, linker removed
# Fuc(a1-2)Gal = molecular target: Fuc(a1-2)Gal
# In short: (§1)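 Glycan array binding is given as a within-array Z-score, which can be read as non-binding when negative. The arrays, 3228 of them, came from the Consortium for Functional Glycomics database and were retained only where the protein sequence was available. Z-scores were averaged across arrays of the same protein sequence at different concentrations or buffers and across linkers.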
# Fuc(a1-2)Gal(b1-3)GalNAc = molecular target: Fuc(a1-2)Gal(b1-3)GalNAc
# In short: as §1
# [1] = molecular target: Fuc(a1-2)Gal(b1-3)GalNAc(a1-3)[Fuc(a1-2)]Gal(b1-4)Glc
# In short: as §1
# [2] = molecular target: Fuc(a1-2)Gal(b1-3)GalNAc(a1-3)[Fuc(a1-2)]Gal(b1-4)GlcNAc
# In short: as §1
# [3] = molecular target: Fuc(a1-2)Gal(b1-3)GalNAc(b1-3)Gal
# In short: as §1
# [4] = molecular target: Fuc(a1-2)Gal(b1-3)GalNAc(b1-3)Gal(a1-4)Gal(b1-4)Glc
# In short: as §1
# [5] = molecular target: Fuc(a1-2)Gal(b1-3)GalNAc(b1-4)[Neu5Ac(a2-3)]Gal(b1-4)Glc
# In short: as §1
# Fuc(a1-2)Gal(b1-3)GlcNAc = molecular target: Fuc(a1-2)Gal(b1-3)GlcNAc
# In short: as §1
# [6] = molecular target: Fuc(a1-2)Gal(b1-3)GlcNAc(b1-2)Man(a1-3)[Fuc(a1-2)Gal(b1-3)GlcNAc(b1-2)Man(a1-6)]Man(b1-4)GlcNAc(b1-4)GlcNAc
# In short: as §1
# [7] = molecular target: Fuc(a1-2)Gal(b1-3)GlcNAc(b1-2)Man(a1-3)[Fuc(a1-2)Gal(b1-3)GlcNAc(b1-2)Man(a1-6)]Man(b1-4)GlcNAc(b1-4)[Fuc(a1-6)]GlcNAc
# In short: as §1
# [8] = molecular target: Fuc(a1-2)Gal(b1-3)GlcNAc(b1-3)Gal(b1-4)Glc
# In short: as §1
# [9] = molecular target: Fuc(a1-2)Gal(b1-3)GlcNAc(b1-3)GalNAc
# In short: as §1
# [10] = molecular target: Fuc(a1-2)Gal(b1-3)GlcNAc(b1-3)[Fuc(a1-2)Gal(b1-3)GlcNAc(b1-6)]GalNAc
# In short: as §1
# [11] = molecular target: Fuc(a1-2)Gal(b1-3)GlcNAc(b1-3)[Gal(b1-4)GlcNAc(b1-6)]Gal(b1-4)Glc
# In short: as §1
# [12] = molecular target: Fuc(a1-2)Gal(b1-3)GlcNAc(b1-3)[Neu5Ac(a2-6)Gal(b1-4)GlcNAc(b1-6)]Gal(b1-4)Glc
# In short: as §1
# [13] = molecular target: Fuc(a1-2)Gal(b1-3)GlcNAc6S
# In short: as §1
# [14] = molecular target: Fuc(a1-2)Gal(b1-3)[Fuc(a1-4)]GlcNAc
# In short: as §1
# [15] = molecular target: Fuc(a1-2)Gal(b1-3)[Fuc(a1-4)]GlcNAc(b1-2)Man(a1-3)[Fuc(a1-2)Gal(b1-3)[Fuc(a1-4)]GlcNAc(b1-2)Man(a1-3)]Man(b1-4)GlcNAc(b1-4)GlcNAc
# In short: as §1
# [16] = molecular target: Fuc(a1-2)Gal(b1-3)[Fuc(a1-4)]GlcNAc(b1-2)Man(a1-3)[Fuc(a1-2)Gal(b1-3)[Fuc(a1-4)]GlcNAc(b1-2)Man(a1-6)]Man(b1-4)GlcNAc(b1-4)[Fuc(a1-6)]GlcNAc(b1-4)[Fuc(a1-6)]GlcNAc
# In short: as §1
# [17] = molecular target: Fuc(a1-2)Gal(b1-3)[Fuc(a1-4)]GlcNAc(b1-3)[Fuc(a1-3)[Gal(b1-4)]GlcNAc(b1-6)]Gal(b1-4)Glc
# In short: as §1
# [18] = molecular target: Fuc(a1-2)Gal(b1-3)[Fuc(a1-4)]GlcNAc(b1-3)[Gal(b1-4)GlcNAc(b1-6)]Gal(b1-4)Glc
# In short: as §1
# Fuc(a1-2)Gal(b1-4)Glc = molecular target: Fuc(a1-2)Gal(b1-4)Glc
# In short: as §1
# Fuc(a1-2)Gal(b1-4)Glc6S = molecular target: Fuc(a1-2)Gal(b1-4)Glc6S
# In short: as §1
# Fuc(a1-2)Gal(b1-4)GlcNAc = molecular target: Fuc(a1-2)Gal(b1-4)GlcNAc
# In short: as §1
# [19] = molecular target: Fuc(a1-2)Gal(b1-4)GlcNAc(b1-2)Man
# In short: as §1
# [20] = molecular target: Fuc(a1-2)Gal(b1-4)GlcNAc(b1-2)Man(a1-3)[Fuc(a1-2)Gal(b1-4)GlcNAc(b1-2)Man(a1-6)]Man(b1-4)GlcNAc(b1-4)GlcNAc
# In short: as §1
# [21] = molecular target: Fuc(a1-2)Gal(b1-4)GlcNAc(b1-2)Man(a1-3)[Fuc(a1-2)Gal(b1-4)GlcNAc(b1-2)Man(a1-6)]Man(b1-4)GlcNAc(b1-4)[Fuc(a1-6)]GlcNAc
# In short: as §1
# [22] = molecular target: Fuc(a1-2)Gal(b1-4)GlcNAc(b1-2)[Fuc(a1-2)Gal(b1-4)GlcNAc(b1-4)]Man(a1-3)[Fuc(a1-2)Gal(b1-4)GlcNAc(b1-2)Man(a1-6)]Man(b1-4)GlcNAc(b1-4)GlcNAc
# In short: as §1
# [23] = molecular target: Fuc(a1-2)Gal(b1-4)GlcNAc(b1-3)Gal(b1-4)GlcNAc
# In short: as §1
# [24] = molecular target: Fuc(a1-2)Gal(b1-4)GlcNAc(b1-3)Gal(b1-4)GlcNAc(b1-2)Man(a1-3)[Fuc(a1-2)Gal(b1-4)GlcNAc(b1-3)Gal(b1-4)GlcNAc(b1-2)Man(a1-6)]Man(b1-4)GlcNAc(b1-4)GlcNAc
# In short: as §1
# [25] = molecular target: Fuc(a1-2)Gal(b1-4)GlcNAc(b1-3)Gal(b1-4)GlcNAc(b1-3)Gal(b1-4)GlcNAc
# In short: as §1
# [26] = molecular target: Fuc(a1-2)Gal(b1-4)GlcNAc(b1-3)GalNAc
# In short: as §1
# [27] = molecular target: Fuc(a1-2)Gal(b1-4)GlcNAc(b1-3)[Fuc(a1-2)Gal(b1-4)GlcNAc(b1-6)]GalNAc
# In short: as §1
# [28] = molecular target: Fuc(a1-2)Gal(b1-4)GlcNAc(b1-3)[Fuc(a1-3)[Gal(b1-4)]GlcNAc(b1-6)]Gal(b1-4)Glc
# In short: as §1
# [29] = molecular target: Fuc(a1-2)Gal(b1-4)GlcNAc(b1-6)GalNAc
# In short: as §1
# [30] = molecular target: Fuc(a1-2)Gal(b1-4)GlcNAc6S
# In short: as §1
# [31] = molecular target: Fuc(a1-2)Gal(b1-4)[Fuc(a1-3)]GlcNAc
# In short: as §1
# [32] = molecular target: Fuc(a1-2)Gal(b1-4)[Fuc(a1-3)]GlcNAc(b1-2)Man(a1-3)[Fuc(a1-2)Gal(b1-4)[Fuc(a1-3)]GlcNAc(b1-2)Man(a1-6)]Man(b1-4)GlcNAc(b1-4)[Fuc(a1-6)]GlcNAc
# In short: as §1
# [33] = molecular target: Fuc(a1-2)Gal(b1-4)[Fuc(a1-3)]GlcNAc(b1-2)[Fuc(a1-2)Gal(b1-4)[Fuc(a1-3)]GlcNAc(b1-4)]Man(a1-3)[Fuc(a1-2)Gal(b1-4)[Fuc(a1-3)]GlcNAc(b1-2)Man(a1-6)]Man(b1-4)GlcNAc(b1-4)GlcNAc
# In short: as §1
# [34] = molecular target: Fuc(a1-2)Gal(b1-4)[Fuc(a1-3)]GlcNAc(b1-3)Gal(b1-4)[Fuc(a1-3)]GlcNAc
# In short: as §1
# [35] = molecular target: Fuc(a1-2)Gal(b1-4)[Fuc(a1-3)]GlcNAc(b1-3)Gal(b1-4)[Fuc(a1-3)]GlcNAc(b1-3)Gal(b1-4)[Fuc(a1-3)]GlcNAc
# In short: as §1
# [36] = molecular target: Fuc(a1-2)Gal(b1-4)[Fuc(a1-3)]GlcNAc(b1-3)GalNAc
# In short: as §1
# [37] = molecular target: Fuc(a1-2)Gal(b1-4)[Fuc(a1-3)]GlcNAc(b1-3)[Neu5Ac(a2-6)Gal(b1-4)GlcNAc(b1-6)]Gal(b1-4)Glc
# In short: as §1
# [38] = molecular target: Fuc(a1-2)Gal3S(b1-4)GlcNAc
# In short: as §1
# [39] = molecular target: Fuc(a1-2)Gal6S(b1-3)GlcNAc
# In short: as §1
binder,measurement,setting,value
B1,glycan array binding signal (z-score),Fuc(a1-2)Gal,-0.396
same,glycan array binding signal (z-score),Fuc(a1-2)Gal(b1-3)GalNAc,-0.493
same,glycan array binding signal (z-score),[1],-0.188
same,glycan array binding signal (z-score),[2],-0.799
same,glycan array binding signal (z-score),[3],-0.791
same,glycan array binding signal (z-score),[4],0.314
same,glycan array binding signal (z-score),[5],-0.348
same,glycan array binding signal (z-score),Fuc(a1-2)Gal(b1-3)GlcNAc,0.012
same,glycan array binding signal (z-score),[6],0.892
same,glycan array binding signal (z-score),[7],-0.125
same,glycan array binding signal (z-score),[8],-0.445
same,glycan array binding signal (z-score),[9],-0.239
same,glycan array binding signal (z-score),[10],2.03
same,glycan array binding signal (z-score),[11],-1.04
same,glycan array binding signal (z-score),[12],-0.879
same,glycan array binding signal (z-score),[13],0.528
same,glycan array binding signal (z-score),[14],-0.219
same,glycan array binding signal (z-score),[15],0.767
same,glycan array binding signal (z-score),[16],0.278
same,glycan array binding signal (z-score),[17],-0.376
same,glycan array binding signal (z-score),[18],-0.817
same,glycan array binding signal (z-score),Fuc(a1-2)Gal(b1-4)Glc,-0.79
same,glycan array binding signal (z-score),Fuc(a1-2)Gal(b1-4)Glc6S,2.24
same,glycan array binding signal (z-score),Fuc(a1-2)Gal(b1-4)GlcNAc,-0.039
same,glycan array binding signal (z-score),[19],0.442
same,glycan array binding signal (z-score),[20],1.21
same,glycan array binding signal (z-score),[21],0.239
same,glycan array binding signal (z-score),[22],0.13
same,glycan array binding signal (z-score),[23],-1.09
same,glycan array binding signal (z-score),[24],-0.43
same,glycan array binding signal (z-score),[25],-1.38
same,glycan array binding signal (z-score),[26],-0.202
same,glycan array binding signal (z-score),[27],-0.781
same,glycan array binding signal (z-score),[28],-0.195
same,glycan array binding signal (z-score),[29],0.66
same,glycan array binding signal (z-score),[30],0.676
same,glycan array binding signal (z-score),[31],-0.754
same,glycan array binding signal (z-score),[32],-0.323
same,glycan array binding signal (z-score),[33],0.07
same,glycan array binding signal (z-score),[34],-0.992
same,glycan array binding signal (z-score),[35],0.784
same,glycan array binding signal (z-score),[36],-0.27
same,glycan array binding signal (z-score),[37],-0.038
same,glycan array binding signal (z-score),[38],0.148
same,glycan array binding signal (z-score),[39],0.297

# 2 entries from above, with tabs.
binder	measurement	setting	value
B1	glycan array binding signal (z-score)	Fuc(a1-2)Gal	-0.396
same	glycan array binding signal (z-score)	[37]	-0.038
